Values quoted from earlier work as cited in PMC4184567, “Glucuronidation of drugs in humanized UDP-glucuronosyltransferase 1 mice: Similarity with glucuronidation in human liver microsomes” (Pharmacology Research & Perspectives, 2013).

What was measured:
human liver microsomes = conditions: humans; ref Court et al. [2003]; Shiratani et al. [2008]; cited from earlier work
mouse liver microsomes = conditions: mice; ref Court et al. [2003]; Shiratani et al. [2008]; cited from earlier work

## CN1CC[C@]23c4c5ccc(O)c4O[C@H]2[C@@H](O)C=C[C@H]3[C@H]1C5 [morphine]
Human liver microsomes
  Vmax of morphine 3-glucuronidation: 2.7 nmol/min/mg
Mouse liver microsomes
  Vmax of morphine 3-glucuronidation: 19 nmol/min/mg
